Measured values reported in paper PMC7731434, “Development and Validation of a Bioanalytical Method for 3′- and 6′-Sialyllactose in Minipig Liver and Kidney Using Liquid Chromatography-Tandem Mass Spectrometry and Its Application to Analysis of Tissue Distribution” (Molecules, 2020).

Experiment: Endogenous (background) concentration of SL in blank authentic minipig tissue
Details: for Background concentration in blank authentic matrix: measured at initiation of the stability test; for Endogenous (background) concentration in authentic matrix: x-intercept of standard-addition calibration curve (parallelism test)

SMILES	Background concentration in blank authentic matrix (kidney) [ng/g]	Endogenous (background) concentration in authentic matrix (kidney) [ng/g]	Background concentration in blank authentic matrix (liver) [ng/g]	Endogenous (background) concentration in authentic matrix (liver) [ng/g]
CC(=O)NC1C(O)CC(OCC2OC(OC3C(CO)OC(O)C(O)C3O)C(O)C(O)C2O)(C(=O)O)OC1C(O)C(O)CO (centres unmarked) [6′-SL, 6′-sialyllactose]	55.6	58.9	118	117
CC(=O)N[C@H]1[C@H]([C@H](O)[C@H](O)CO)O[C@@](O[C@H]2[C@@H](O)[C@@H](CO)O[C@@H](O[C@H]3[C@H](O)[C@@H](O)[C@H](O)O[C@@H]3CO)[C@@H]2O)(C(=O)O)C[C@@H]1O [3′-SL, 3′-sialyllactose]	62.1	66.3	339	324
